PubChem BioAssay AID1259254 | NCATS | 2017

Purpose: 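Gene knock-downs that lead to re-replication, shown by excess G2 DNA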 (primary screen)
Cells: human HCT116 colorectal cancer cells
Reagent: single siRNA against human genes
Time to read-out: 3 days
Measured: 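Imaged Hoechst DNA stain sorts each cell into a cycle phase by DNA amount; per plate, G2 fraction set to 0% for non-targeting and 100% for GMNN siRNA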
Direction: G2 robust z-score and G2 cells, % of GMNN control: higher = more G2 cells, more excess DNA replication; raw share of cells in G2: higher = larger share of cells with G2 DNA content
Rule for the call: 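Active siRNAs have a G2 robust z of 5 or more median absolute deviations over the median, which in these data means about 38% or higher of GMNN control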
This is an unselected part of about 59,000 reagents. In the full data, about 1,550 (2.6%) got an active call. 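G2 share is only a proxy for re-replication; each gene was hit by three separate siRNAs, and active genes were retested.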 The raw values are shown without normalisation. A number with no mark means an inactive call. The numbers tell different reagents against one gene apart. Not given: the amount of reagent.

gene | reagent no. | G2 robust z-score | G2 cells, % of GMNN control | raw share of cells in G2 (%)
BRSK1 | 1 | 0.0398 | 3.25 | 6.6
BRSK1 | 2 | -0.903 | -3.39 | 3.96
BRSK1 | 3 | -0.287 | 0.949 | 3.99
LINC02897 | 1 | -0.455 | -0.237 | 4.53
LINC02897 | 2 | -1.06 | -4.5 | 2.23
LINC02897 | 3 | -0.346 | 0.533 | 3.64
SIRPD | 1 | 0.672 | 7.7 | 9.24
SIRPD | 2 | -0.924 | -3.53 | 3.45
SIRPD | 3 | 0.288 | 4.99 | 6.37
SNX31 | 1 | -0.338 | 0.59 | 3.81
SNX31 | 2 | 0.583 | 7.07 | 5.33
SNX31 | 3 | 0.884 | 9.18 | 5.67
CWF19L2 | 1 | 1.26 | 11.9 | 7.8
CWF19L2 | 2 | -0.116 | 2.15 | 3.58
CWF19L2 | 3 | -0.729 | -2.16 | 2.31
SEPTIN10 | 1 | 6.51 (active) | 48.8 | 29.2
SEPTIN10 | 2 | 0.836 | 8.85 | 7.94
SEPTIN10 | 3 | -0.326 | 0.676 | 4.99
TMEM132E-DT | 1 | 0.104 | 3.7 | 5.16
TMEM132E-DT | 2 | 0.617 | 7.31 | 6.42
TMEM132E-DT | 3 | -0.225 | 1.39 | 5.37
STK11 | 1 | 0.554 | 6.87 | 7.88
STK11 | 2 | 2.01 | 17.1 | 11.2
STK11 | 3 | -0.00548 | 2.93 | 5.06
TRMU | 1 | 3.71 | 29.1 | 16.4
TRMU | 2 | 0.637 | 7.45 | 7.11
TRMU | 3 | -0.981 | -3.93 | 4.71
ABHD16B | 1 | 0.0923 | 3.62 | 4.25
ABHD16B | 2 | -0.616 | -1.37 | 2.08
ABHD16B | 3 | 0.158 | 4.08 | 5.71
PDCD5 | 1 | 0.391 | 5.72 | 7.67
PDCD5 | 2 | 1.17 | 11.2 | 8.33
PDCD5 | 3 | -0.737 | -2.22 | 2.56
UPP2 | 1 | -0.426 | -0.0301 | 5.94
UPP2 | 2 | 1.35 | 12.5 | 9.27
UPP2 | 3 | -0.55 | -0.905 | 4.32
HTR4 | 1 | 0.357 | 5.48 | 7.8
HTR4 | 2 | -0.266 | 1.1 | 4.9
HTR4 | 3 | 3.21 | 25.6 | 11.1
LOC728353 (retired record) | 1 | 1.54 | 13.8 | 8.78
LOC728353 (retired record) | 2 | -0.895 | -3.33 | 1.7
LOC728353 (retired record) | 3 | -0.55 | -0.9 | 3.26
CSGALNACT2 | 1 | -0.0244 | 2.8 | 5.5
CSGALNACT2 | 2 | -0.6 | -1.26 | 5.88
CSGALNACT2 | 3 | 0.155 | 4.06 | 5.89
LINC01599 | 1 | -0.399 | 0.162 | 3.66
LINC01599 | 2 | -0.371 | 0.357 | 3.08
LINC01599 | 3 | -0.354 | 0.48 | 2.91
